Laboratory results from patent US8962845B2, “Pyrazole compounds” (National Health Research Institutes, priority 2011, dated 2015).
Some entries share one result that the patent states for a list of compounds.

Amino acid sequences for entries named in this document (tags omitted).
UniProt P21554, whole entry: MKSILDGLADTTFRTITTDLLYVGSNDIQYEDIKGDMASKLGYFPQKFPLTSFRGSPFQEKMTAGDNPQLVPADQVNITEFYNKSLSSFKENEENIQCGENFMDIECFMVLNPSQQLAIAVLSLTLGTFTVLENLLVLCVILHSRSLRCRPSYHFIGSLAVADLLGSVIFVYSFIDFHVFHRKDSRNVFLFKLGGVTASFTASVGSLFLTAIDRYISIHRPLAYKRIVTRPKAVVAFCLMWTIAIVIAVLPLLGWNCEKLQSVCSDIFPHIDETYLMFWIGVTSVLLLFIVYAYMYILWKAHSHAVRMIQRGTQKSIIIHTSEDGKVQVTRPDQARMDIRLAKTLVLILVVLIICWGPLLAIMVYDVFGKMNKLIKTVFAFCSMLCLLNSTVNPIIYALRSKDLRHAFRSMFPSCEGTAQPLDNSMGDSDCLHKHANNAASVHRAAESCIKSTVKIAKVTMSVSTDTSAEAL

What follows are compounds tested against T1, Human CB1 receptor (Homo sapiens, UniProt P21554) (assay: DELFIA GTP-binding assay). Settings: 20 nM CP55,940; HEK293 membranes; units given in the value.
T1 construct: expressed in transfected cells
Assay type: biochemical

Compound	EC50 for inhibiting Eu-GTP binding (CP55,940-stimulated CB1 receptor activation)
N#C/N=C(/NCc1c(C(=O)NN2CCCCC2)nn(-c2ccc(Cl)cc2Cl)c1-c1ccc(C#Cc2ccc(C(F)(F)F)cc2)s1)NC1CC1 [Compound 11, (Z)-4-((2-Cyano-3-cyclopropylguanidino)methyl)-1-(2,4-dichlorophenyl)-N-(piperidin-1-yl)-5-(5-((4-(trifluoromethyl)phenyl)ethynyl)thiophen-2-yl)-1H-pyrazole-3-carboxamide]	0.001 µM and 10 µM
CN1CCN(Cc2c(C(=O)NN3CCCCC3)nn(-c3ccc(Cl)cc3Cl)c2-c2ccc(C#Cc3ccc(C(F)(F)F)cc3)s2)CC1 [Compound 110, 1-(2,4-Dichlorophenyl)-4-((4-methylpiperazin-1-yl)methyl)-N-(piperidin-1-yl)-5-(5-((4-(trifluoromethyl)phenyl)ethynyl)thiophen-2-yl)-1H-pyrazole-3-carboxamide]	0.001 µM and 10 µM
O=C(NN1CCCCC1)c1nn(-c2ccc(Cl)cc2Cl)c(-c2ccc(C#CC3CCCC3)s2)c1CNS(=O)(=O)N1CCCCC1 [Compound 75, 5-(5-(Cyclopentylethynyl)thiophen-2-yl)-1-(2,4-dichlorophenyl)-N-(piperidin-1-yl)-4-((piperidine-1-sulfonamido)methyl)-1H-pyrazole-3-carboxamide]	0.001 µM and 10 µM
O=C(NN1CCCCC1)c1nn(-c2ccc(Cl)cc2Cl)c(-c2ccc(C(F)(F)F)cc2)c1CNS(=O)(=O)N1CCCCC1 [Compound 135, 1-(2,4-Dichlorophenyl)-N-(piperidin-1-yl)-4-((piperidine-1-sulfonamido)methyl)-5-(4-(trifluoromethyl)phenyl)-1H-pyrazole-3-carboxamide]	0.001 µM and 10 µM
O=C(NN1CCCCC1)c1nn(-c2ccc(Cl)cc2Cl)c(-c2ccc(C#Cc3ccc(C(F)(F)F)cc3)s2)c1CNS(=O)(=O)N1CCC1 [Compound 47, 4-((Azetidine-1-sulfonamido)methyl)-1-(2,4-dichlorophenyl)-N-(piperidin-1-yl)-5-(5-((4-(trifluoromethyl)phenyl)ethynyl)thiophen-2-yl)-1H-pyrazole-3-carboxamide]	0.001 µM and 10 µM
C#CCN(C)Cc1c(C(=O)NN2CCCCC2)nn(-c2ccc(Cl)cc2Cl)c1-c1ccc(C#Cc2ccc(C(F)(F)F)cc2)s1 [Compound 98, 1-(2,4-Dichlorophenyl)-4-((methyl(prop-2-ynyl)amino)methyl)-N-(piperidin-1-yl)-5-(5-((4-(trifluoromethyl)phenyl)ethynyl)thiophen-2-yl)-1H-pyrazole-3-carboxamide]	0.001 µM and 10 µM
O=C(NN1CCCCC1)c1nn(-c2ccc(Cl)cc2Cl)c(-c2ccc(C(F)(F)F)cc2)c1CNS(=O)(=O)c1cnc[nH]1 [Compound 139, 4-((1H-Imidazole-5-sulfonamido)methyl)-1-(2,4-dichlorophenyl)-N-(piperidin-1-yl)-5-(4-(trifluoromethyl)phenyl)-1H-pyrazole-3-carboxamide]	0.001 µM and 10 µM
O=C(NN1CCCCC1)c1nn(-c2ccc(Cl)cc2Cl)c(-c2ccc(C#Cc3ccc(C(F)(F)F)cc3)s2)c1CNS(=O)(=O)N1CC[C@H](C(F)(F)F)C1 [Compound 156, 1-(2,4-dichlorophenyl)-N-(piperidin-1-yl)-5-(5-((4-(trifluoromethyl)phenyl)ethynyl)thiophen-2-yl)-4-(((S)-3-(trifluoromethyl)pyrrolidine-1-sulfonamido)methyl)-1H-pyrazole-3-carboxamide]	0.001 µM and 10 µM
CCCC#Cc1ccc(-c2c(CNS(=O)(=O)N3CCS(=O)(=O)CC3)c(C(=O)NN3CCCCC3)nn2-c2ccc(Cl)cc2Cl)s1 [Compound 65, 1-(2,4-Dichlorophenyl)-4-({[(1,1-dioxidothiomorpholin-4-yl)sulfonyl]amino}methyl)-5-[5-(pent-1-yn-1-yl)thiophen-2-yl]-N-(piperidin-1-yl)-1H-pyrazole-3-carboxamide]	0.001 µM and 10 µM
